Test results: patent US20170224836A1 (Novartis, published 2017)
Results are given in words; binding and its absence hold for the method and conditions named. Some entries that bind do so weakly or less than the wild type.

Biological target: T1, hCDH6aa54-615 APPavi (human, UniProt P55285 54-615)
T1 sequence: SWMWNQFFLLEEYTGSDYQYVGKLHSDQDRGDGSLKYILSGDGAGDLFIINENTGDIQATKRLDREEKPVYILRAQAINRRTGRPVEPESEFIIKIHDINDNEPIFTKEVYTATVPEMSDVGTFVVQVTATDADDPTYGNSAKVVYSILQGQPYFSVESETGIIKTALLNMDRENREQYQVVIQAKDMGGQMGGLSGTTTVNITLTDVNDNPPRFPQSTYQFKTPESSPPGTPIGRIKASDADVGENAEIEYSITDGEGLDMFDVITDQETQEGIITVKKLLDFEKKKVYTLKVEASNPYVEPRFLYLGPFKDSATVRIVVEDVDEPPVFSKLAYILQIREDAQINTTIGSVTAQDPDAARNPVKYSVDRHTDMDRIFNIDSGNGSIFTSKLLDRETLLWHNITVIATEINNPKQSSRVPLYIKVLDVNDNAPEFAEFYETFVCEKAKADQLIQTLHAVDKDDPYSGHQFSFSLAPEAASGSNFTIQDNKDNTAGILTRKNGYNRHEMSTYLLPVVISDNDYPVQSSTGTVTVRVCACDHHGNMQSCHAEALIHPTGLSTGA
Assay: SPR pairwise binning

B1: NOV1132 (antibody, human IgG1, lambda, V domains shown)
VH: QVQLQQSGPGLVKPSQTLSLTCAISGDSVSSQSAGWNWIRQSPSRGLEWLGRIYYRSKWYNDYAVSVKSRITINPDTSKNQFSLQLNSVTPEDTAVYYCAREKYTVSFYDFFDYWGQGTLVTVSS
VL: SYELTQPLSVSVALGQTARITCSGDNIGSMTAHWYQQKPGQAPVLVIYDKNERPSGIPERFSGSNSGNTATLTISRAQAGDEADYYCQSWDDSYTSVVFGGGTKLTVLG
binding: binds
